Values from PubChem BioAssay AID1224830 (NIAID, 2016)
Screen: 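Regulators of TLR4 signalling towards TNF-alpha in macrophage-like cells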 (primary screen). System: human THP-1 monocytic leukaemia cells, TNF dual-luciferase reporter clone, PMA-differentiated to macrophage-like cells. Reagent: siRNA pool against human genes, 50 nM. Timing: LPS for 4 h, given about 3 days after siRNA transfection. Conditions: bacterial LPS (TLR4 ligand), 10 ng/ml. Detection: 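Ratio of firefly to renilla light, scaled to the plate median and expressed as a robust z-score per replicate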. Reading the numbers: TNF reporter robust z-score: higher = stronger TNF reporter response to LPS. Rule for the call: 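Each well counts as active if its z-score is over 2.8 or under -1.5; controls are left without a call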.
In all, the deposit lists about 18,000 reagents; this is a random part of them. About 2,900 of them (16%) count as active. 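Calls are made per well; low scores hint the gene aids the LPS response, high scores that it dampens it.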 A number with no mark means an inactive call. Repeated entries: four replicate wells of each siRNA pool.

{"gene symbol": "ATP6AP1 (GeneID 537)", "TNF reporter robust z-score": -1.49}
{"gene symbol": "ATP6AP1 (GeneID 537)", "TNF reporter robust z-score": -1.26}
{"gene symbol": "ATP6AP1 (GeneID 537)", "TNF reporter robust z-score": -1.32}
{"gene symbol": "ATP6AP1 (GeneID 537)", "TNF reporter robust z-score": -1.48}
{"gene symbol": "CDC25C (GeneID 995)", "TNF reporter robust z-score": -0.73}
{"gene symbol": "CDC25C (GeneID 995)", "TNF reporter robust z-score": "-1.76 (active)"}
{"gene symbol": "CDC25C (GeneID 995)", "TNF reporter robust z-score": -1.5}
{"gene symbol": "CDC25C (GeneID 995)", "TNF reporter robust z-score": -1.44}
{"gene symbol": "ABCF3 (GeneID 55324)", "TNF reporter robust z-score": 1.54}
{"gene symbol": "ABCF3 (GeneID 55324)", "TNF reporter robust z-score": 1.96}
{"gene symbol": "ABCF3 (GeneID 55324)", "TNF reporter robust z-score": 0.74}
{"gene symbol": "ABCF3 (GeneID 55324)", "TNF reporter robust z-score": 0.31}
{"gene symbol": "CA2 (GeneID 760)", "TNF reporter robust z-score": 1.47}
{"gene symbol": "CA2 (GeneID 760)", "TNF reporter robust z-score": 1.64}
{"gene symbol": "CA2 (GeneID 760)", "TNF reporter robust z-score": 0.29}
{"gene symbol": "CA2 (GeneID 760)", "TNF reporter robust z-score": 1.55}
{"gene symbol": "ADCK2 (GeneID 90956)", "TNF reporter robust z-score": -0.27}
{"gene symbol": "ADCK2 (GeneID 90956)", "TNF reporter robust z-score": 1.23}
{"gene symbol": "ADCK2 (GeneID 90956)", "TNF reporter robust z-score": -0.26}
{"gene symbol": "ADCK2 (GeneID 90956)", "TNF reporter robust z-score": 0.89}
{"gene symbol": "EIF4A3 (GeneID 9775)", "TNF reporter robust z-score": 1.5}
{"gene symbol": "EIF4A3 (GeneID 9775)", "TNF reporter robust z-score": 1.76}
{"gene symbol": "EIF4A3 (GeneID 9775)", "TNF reporter robust z-score": 1.47}
{"gene symbol": "EIF4A3 (GeneID 9775)", "TNF reporter robust z-score": 1.16}
{"gene symbol": "ARMC6 (GeneID 93436)", "TNF reporter robust z-score": 0.2}
{"gene symbol": "ARMC6 (GeneID 93436)", "TNF reporter robust z-score": 1.29}
{"gene symbol": "ARMC6 (GeneID 93436)", "TNF reporter robust z-score": 0.43}
{"gene symbol": "ARMC6 (GeneID 93436)", "TNF reporter robust z-score": 0.84}
{"gene symbol": "IFT172 (GeneID 26160)", "TNF reporter robust z-score": -0.23}
{"gene symbol": "IFT172 (GeneID 26160)", "TNF reporter robust z-score": 0.5}
{"gene symbol": "IFT172 (GeneID 26160)", "TNF reporter robust z-score": -0.69}
{"gene symbol": "IFT172 (GeneID 26160)", "TNF reporter robust z-score": -0.1}
{"gene symbol": "RUNDC3B (GeneID 154661)", "TNF reporter robust z-score": 2.38}
{"gene symbol": "RUNDC3B (GeneID 154661)", "TNF reporter robust z-score": 0.92}
{"gene symbol": "RUNDC3B (GeneID 154661)", "TNF reporter robust z-score": 1.68}
{"gene symbol": "RUNDC3B (GeneID 154661)", "TNF reporter robust z-score": 2.4}
{"gene symbol": "REEP6 (GeneID 92840)", "TNF reporter robust z-score": 1.89}
{"gene symbol": "REEP6 (GeneID 92840)", "TNF reporter robust z-score": "2.94 (active)"}
{"gene symbol": "REEP6 (GeneID 92840)", "TNF reporter robust z-score": -0.74}
{"gene symbol": "REEP6 (GeneID 92840)", "TNF reporter robust z-score": -0.19}
{"gene symbol": "RNF130 (GeneID 55819)", "TNF reporter robust z-score": -0.59}
{"gene symbol": "RNF130 (GeneID 55819)", "TNF reporter robust z-score": 1.83}
{"gene symbol": "RNF130 (GeneID 55819)", "TNF reporter robust z-score": 1.08}
{"gene symbol": "RNF130 (GeneID 55819)", "TNF reporter robust z-score": 0.32}
{"gene symbol": "ITGAE (GeneID 3682)", "TNF reporter robust z-score": 0.45}
{"gene symbol": "ITGAE (GeneID 3682)", "TNF reporter robust z-score": -0.81}
{"gene symbol": "ITGAE (GeneID 3682)", "TNF reporter robust z-score": -0.14}
{"gene symbol": "ITGAE (GeneID 3682)", "TNF reporter robust z-score": -0.46}
{"gene symbol": "CRISP2 (GeneID 7180)", "TNF reporter robust z-score": -1.13}
{"gene symbol": "CRISP2 (GeneID 7180)", "TNF reporter robust z-score": -1.42}
{"gene symbol": "CRISP2 (GeneID 7180)", "TNF reporter robust z-score": -1.05}
{"gene symbol": "CRISP2 (GeneID 7180)", "TNF reporter robust z-score": -1.1}
{"gene symbol": "CLCA1 (GeneID 1179)", "TNF reporter robust z-score": -0.12}
{"gene symbol": "CLCA1 (GeneID 1179)", "TNF reporter robust z-score": 0.18}
{"gene symbol": "CLCA1 (GeneID 1179)", "TNF reporter robust z-score": -0.79}
{"gene symbol": "TNFRSF9 (GeneID 3604)", "TNF reporter robust z-score": -0.92}
{"gene symbol": "TNFRSF9 (GeneID 3604)", "TNF reporter robust z-score": 0.44}
{"gene symbol": "TNFRSF9 (GeneID 3604)", "TNF reporter robust z-score": -1.07}
{"gene symbol": "TNFRSF9 (GeneID 3604)", "TNF reporter robust z-score": -0.64}
{"gene symbol": "SET (GeneID 6418)", "TNF reporter robust z-score": -0.24}
{"gene symbol": "SET (GeneID 6418)", "TNF reporter robust z-score": -0.5}
{"gene symbol": "SET (GeneID 6418)", "TNF reporter robust z-score": -0.08}
{"gene symbol": "SET (GeneID 6418)", "TNF reporter robust z-score": 0.49}

4 entries already listed, sorted by “TNF reporter robust z-score”, lowest first.
{"gene symbol": "CDC25C (GeneID 995)", "TNF reporter robust z-score": -1.5}
{"gene symbol": "CDC25C (GeneID 995)", "TNF reporter robust z-score": -1.44}
{"gene symbol": "ABCF3 (GeneID 55324)", "TNF reporter robust z-score": 1.54}
{"gene symbol": "ABCF3 (GeneID 55324)", "TNF reporter robust z-score": 1.96}
